# Measured values: PubChem BioAssay AID588590 (National Center for Advancing Translational Sciences (NCATS), 2011)
# Amino acid sequences for entries named in this document (tags omitted). A change or cut given only in a name is not applied to a line headed by its entry.
# UniProt Q9UNA4: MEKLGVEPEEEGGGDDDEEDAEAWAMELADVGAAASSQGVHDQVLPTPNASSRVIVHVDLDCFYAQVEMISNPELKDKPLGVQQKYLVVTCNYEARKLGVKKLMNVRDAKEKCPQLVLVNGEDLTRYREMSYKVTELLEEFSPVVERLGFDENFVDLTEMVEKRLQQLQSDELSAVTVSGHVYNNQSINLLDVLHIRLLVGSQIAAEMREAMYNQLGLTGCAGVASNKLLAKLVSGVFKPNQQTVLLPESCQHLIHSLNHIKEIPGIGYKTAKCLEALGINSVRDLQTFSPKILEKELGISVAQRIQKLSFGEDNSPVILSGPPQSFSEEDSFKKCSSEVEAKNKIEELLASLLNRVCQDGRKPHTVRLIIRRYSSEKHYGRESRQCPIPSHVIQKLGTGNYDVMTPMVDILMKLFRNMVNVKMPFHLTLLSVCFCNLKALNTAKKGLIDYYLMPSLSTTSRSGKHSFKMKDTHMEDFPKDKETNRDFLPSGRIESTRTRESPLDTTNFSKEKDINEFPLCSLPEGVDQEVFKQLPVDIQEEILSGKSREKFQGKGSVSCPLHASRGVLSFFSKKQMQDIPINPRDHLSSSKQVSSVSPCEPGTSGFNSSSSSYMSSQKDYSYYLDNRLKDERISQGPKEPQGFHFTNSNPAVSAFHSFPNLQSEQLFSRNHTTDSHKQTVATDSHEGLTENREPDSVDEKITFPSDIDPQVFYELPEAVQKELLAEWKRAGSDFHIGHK
# Screen size: about 390,000 compounds; about 4,000 (1%) were called active. Inconclusive means that the source gave no clear call. Such entries were picked first, then a sample of the others. Calls come from the whole dose curve; as a rule, active = well fitted inhibition curve with a large enough effect; inconclusive = small, poorly fitted or top-dose-only effect, or another doubt; inactive = no such curve, though single readings can be large or run the other way. Where the call is inconclusive, the potency comes from a doubtful curve fit.
# Biological target: DNA polymerase iota (Homo sapiens) (UniProt Q9UNA4)
# Experiment: qHTS for Inhibitors of Polymerase Iota
# Conditions: Pol iota fluorescent replication assay, 10 min; series mostly up to 115 µM
# Method in brief: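 Pol iota at 10 nM preincubated 15 min with compounds at room temperature; reaction started with fluorescent substrate, 50 nM final. Fluorescence read kinetically at 0 and 10 min; buffer-only wells as negative control.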
# Potency is the fitted concentration of half-maximal effect.
row,Compound,Potency
1,CCn1c(N2CCN(C(=O)C34CC5CC(CC(C5)C3)C4)CC2)nc2ccccc21,"inconclusive: 28.2 µM [inhibitor, full curve, poor fit]"
2,CC(=O)Nc1ccc(NC(=O)C(c2ccccc2)N2Cc3ccccc3C2=O)cc1 (stereo unspecified),inactive
3,CC(C)CCOc1ccc(/C=N/N2C(=O)CSC2=S)cc1,"inconclusive: 28.2 µM [inhibitor, single point]"
4,Cc1nc2ccc(S(=O)(=O)NC(C(=O)N3CCN(c4cccc(Cl)c4)CC3)C(C)C)cc2s1 (stereo unspecified),inactive
5,NS(=O)(=O)c1ccc(NC2=CC(c3ccc([N+](=O)[O-])cc3)N(c3ccc(S(N)(=O)=O)cc3)C2=O)cc1 (stereo unspecified),"inconclusive: 44.7 µM [inhibitor, partial curve]"
6,CCN(C(=O)COC(=O)c1cc2c(s1)CCC(C)C2)c1c(N)n(Cc2ccccc2)c(=O)[nH]c1=O (stereo unspecified),"inconclusive: 39.8 µM [inhibitor, partial curve, poor fit]"
7,Cc1cccc(N2CC(C(=O)Nc3nnc(SCc4cccnc4)s3)CC2=O)c1 (stereo unspecified),"inconclusive: 14.1 µM [inhibitor, full curve, poor fit]"
8,CCOC(=O)c1c(C)[nH]c(C)c1S(=O)(=O)NCC(=O)NCc1ccccc1Cl,"inconclusive: 89.1 µM [inhibitor, partial curve, poor fit]"
9,O=C(NCCS(=O)(=O)N1CCN(c2ccccc2)CC1)c1cccs1,"inconclusive: 100 µM [inhibitor, single point]"
10,CC1(C)CC(=O)C2=C(C1)OC(N)=C(C#N)C2c1ccc[nH]1 (stereo unspecified),active: 28.2 µM
11,COc1cccc(C2CC(=O)Nc3n[nH]c(-c4ccccc4)c32)c1OC (stereo unspecified),"inconclusive: 89.1 µM [inhibitor, single point]"
12,CC1O[C@@H](OC2C(COC3OC(CO)C(O)[C@H](O)C3O)OC(OC3CC[C@]4(C)C(CC[C@@]5(C)[C@@H]4CC=C4[C@@H]6CC(C)(C)CC[C@]6(CO)C(O)C[C@]45C)C3(C)C)C(O)C2O)C(O)C(O)C1O (stereo partly specified),inactive
13,O=C(COc1ccccc1C(=O)Nc1ccccc1)Nc1ccc(-c2ccccc2)cc1,inactive
14,CC1CCc2sc(C(=O)NNC(=S)NCC3CCCO3)cc2C1 (stereo unspecified),inactive
15,Cc1cccc(Cc2c(C)nc3nc(SCc4ccccc4F)nn3c2C)c1,inactive
16,COc1ccc(CCNC(=O)c2nnn(CC(=O)Nc3ccccc3C)c2N)cc1OC,"inconclusive: 70.8 µM [inhibitor, single point]"
17,CC(C)n1c2ccccc2c2nc3ccccc3nc21,"inconclusive: 39.8 µM [inhibitor, single point]"
18,NC(=O)c1ccc(NC(=O)CCc2nc3ccccc3s2)cc1,"inconclusive: 17.8 µM [inhibitor, full curve]"
19,C=C1C(=O)OC2CC1C(O)CC(C)=CCCC(C)=CC(O)CC2C (stereo unspecified),"inconclusive: 25.1 µM [inhibitor, single point]"
20,COc1ccccc1CNC(=O)/C(C#N)=C/c1ccc(OC)c(OC)c1OC,inactive
21,O=c1/c(=C/c2ccccn2)sc2nc3ccccc3n12,inactive

row,Compound,Potency
1,C/C(N)=C(/C#N)C(=O)COC(=O)c1ccccc1C(=O)c1ccc(C)cc1,inactive
2,N#Cc1c(-c2ccc(Cl)cc2Cl)nc2n(c1=O)CCS2,"inconclusive: 25.1 µM [inhibitor, partial curve, poor fit]"
3,COc1cccc(COC(=O)c2ccc3c(=O)n4c(nc3c2)CCC4)c1OC,"inconclusive: 39.8 µM [inhibitor, single point]"
4,Cc1ccc2nc(-c3ccc4c(c3)OCCO4)cc(C(=O)O)c2c1,"inconclusive: 100 µM [inhibitor, single point]"
5,O=C1N/C(=N\S(=O)(=O)Cc2ccccc2)S/C1=C/c1cccc([N+](=O)[O-])c1,"inconclusive: 28.2 µM [inhibitor, partial curve]"
6,CCOC(=O)CCn1c(CC(=O)OCC)nc2ccccc21,"inconclusive: 15.8 µM [inhibitor, partial curve, poor fit]"
7,C#CCOCCOCCOCCNc1nc(N2CCN(C(=O)Cn3cc(CC(C)O)nn3)CC2)nc(N2CCN(C(=O)[C@H](CCCCN)n3cc(CCC(=O)O)nn3)CC2)n1 (stereo partly specified),"inconclusive: 39.8 µM [inhibitor, single point]"
8,COc1cccc(C2CC(c3cccs3)=NN2C(=O)CSC2=NN3CCCC(=O)N=C3S2)c1OC (stereo unspecified),"inconclusive: 3.98 µM [inhibitor, partial curve, poor fit]"
9,O=C(Cc1ccc(Cl)cc1Cl)Nc1ccncc1Cl,"inconclusive: 89.1 µM [inhibitor, single point]"
10,COC(=O)c1cc2c([nH]c1=O)CC(c1ccccc1)CC2=O (stereo unspecified),inactive
11,S=c1nccc(-c2ccc(Cl)cc2)[nH]1,inactive
12,CCCCNc1c(-c2ccc(SC3CCCCC3)c(OC)c2)nc2ccc(Cl)cn12,"inconclusive: 12.6 µM [inhibitor, partial curve, poor fit]"
13,Cc1ccc(NC(=O)/C=N/OCC(=O)NCc2ccccc2Cl)cc1,"inconclusive: 89.1 µM [inhibitor, single point]"
14,COc1ccc2cc(CNc3ccc(C)cc3)c(=O)n(CC(=O)Nc3cccc(C(F)(F)F)c3)c2c1,"inconclusive: 89.1 µM [inhibitor, single point]"
15,Cc1ccc(C(c2c(C)[nH][nH]c2=O)c2c(C)[nH][nH]c2=O)cc1[N+](=O)[O-],"inconclusive: 39.8 µM [inhibitor, single point]"
16,CN(C)C(=O)c1ccc(Nc2nnc(-c3ccc(O)cc3)c3ccccc23)cc1,inactive
17,COc1ccc(Cn2c(SCC(=O)NCc3ccco3)nc3ccsc3c2=O)cc1,"inconclusive: 56.2 µM [inhibitor, partial curve, poor fit]"
18,Cc1ccc(S(=O)(=O)N2CCN(C(=O)CCn3nc(C)c(C)c3C)CC2)cc1,"inconclusive: 70.8 µM [inhibitor, single point]"
19,Cc1ccc(NC(=O)N2CCN(C)c3ncccc32)cc1C,inactive
20,COC(=O)[C@@]12CCCCN1[C@H](c1ccc(-c3ccc(F)cc3)c(OC)c1)[C@@H]1C(=O)N(C)C(=O)[C@@H]12,"inconclusive: 10 µM [inhibitor, full curve, poor fit]"

# Among those listed so far, these have a COOH group:
row,Compound,Potency
4,Cc1ccc2nc(-c3ccc4c(c3)OCCO4)cc(C(=O)O)c2c1,"inconclusive: 100 µM [inhibitor, single point]"
7,C#CCOCCOCCOCCNc1nc(N2CCN(C(=O)Cn3cc(CC(C)O)nn3)CC2)nc(N2CCN(C(=O)[C@H](CCCCN)n3cc(CCC(=O)O)nn3)CC2)n1 (stereo partly specified),"inconclusive: 39.8 µM [inhibitor, single point]"
